Values quoted from earlier work in patent US20180161433A1, “SIZE TUNABLE MICROBIAL MIMETICS FOR IMMUNOTHERAPY OF THYROID CARCINOMAS AND SOLID TUMORS” (priority 2017, published 2018).
At least one compound was matched to its structure with a doubt left.

Tested on: Metastatic medullary thyroid carcinoma (MTC)
Conditions: cited from earlier work

For `COc1cc2nccc(Oc3ccc(NC(=O)C4(C(=O)Nc5ccc(F)cc5)CC4)cc3)c2cc1OC` [cabozantinib], the “survival in Phase III studies” value (MTC patients, Phase III studies) is listed as “neither vandetanib nor cabozantinib significantly improved survival”, the overall survival benefits (MTC) is listed as “marginal” and the progression free survival (MTC) is listed as “improved”.
